According to article PMC6785124, “Allosteric regulation of a prokaryotic small Ras-like GTPase contributes to cell polarity oscillations in bacterial motility” (PLoS Biology, 2019):

Molecular target: T1, Myxococcus xanthus Mutual gliding motility A, MxMglA(His6) (Myxococcus xanthus) (UniProt Q1DB04)
T1 sequence: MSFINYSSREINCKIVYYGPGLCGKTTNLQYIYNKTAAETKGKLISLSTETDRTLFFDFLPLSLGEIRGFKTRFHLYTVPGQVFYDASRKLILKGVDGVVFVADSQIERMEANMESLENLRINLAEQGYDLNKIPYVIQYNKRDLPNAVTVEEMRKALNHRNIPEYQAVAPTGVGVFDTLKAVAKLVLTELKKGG
Assay: fluorescence polarisation; fluorescence anisotropy of 400 nM mant-GDP (m-GDP) mixed with 2 μM MxMglA or its mutant, titrated with MxMglB or MxMglB^ΔCt (concentration as MglB dimer); one site-specific binding fit; both purified

binding: no binding (only MxMglA bound to m-GDP)
Substance: MxMglB^ΔCt(His6), truncated MxMglB lacking the C-terminal helix (Myxococcus xanthus) (domain or fragment)

No constants are given. Whether binding was seen depends on the method and setting. Where a sequence is shown, tags or fusion partners need not be part of it.
